In test [1] the target is T1, GFP-ATG8a (stable transgenic Arabidopsis line) (UniProt Q8LEM4).
T1 sequence: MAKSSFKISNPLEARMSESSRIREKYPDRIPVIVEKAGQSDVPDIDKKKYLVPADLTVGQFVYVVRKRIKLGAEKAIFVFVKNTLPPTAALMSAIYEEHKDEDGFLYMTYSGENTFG
In words: co-IP.

The target of test [2] is T2, GFP-ATG8a (transient expression in N. benthamiana) (UniProt Q8LEM4).
T2 sequence: T1 sequence
In words: co-IP.

These results are taken from paper doi:10.1101/2020.02.13.938316.

Results are given in words; binding and its absence hold for the method and conditions named. Binding seen in cells or lysates may run through a third protein. A result given as binding can be weak or reduced; the word gives no strength. Tags and fused reporters may be left off the sequences shown.

As for “Cucumber mosaic virus (CMV) coat protein CP, from infection”, the binding result in test [1] is listed as “binds”. As to 2b-RFP (Cucumber mosaic virus), the binding result in test [2] was “binds”. “Cucumber mosaic virus (CMV) 2b protein, from infection”: in test [1], the binding entry is given as “binds”.
